These results are taken from paper PMC12268348.

Sequences of proteins named here, by UniProt entry; tags and fusion partners are left off.
UniProt Q9JJ50: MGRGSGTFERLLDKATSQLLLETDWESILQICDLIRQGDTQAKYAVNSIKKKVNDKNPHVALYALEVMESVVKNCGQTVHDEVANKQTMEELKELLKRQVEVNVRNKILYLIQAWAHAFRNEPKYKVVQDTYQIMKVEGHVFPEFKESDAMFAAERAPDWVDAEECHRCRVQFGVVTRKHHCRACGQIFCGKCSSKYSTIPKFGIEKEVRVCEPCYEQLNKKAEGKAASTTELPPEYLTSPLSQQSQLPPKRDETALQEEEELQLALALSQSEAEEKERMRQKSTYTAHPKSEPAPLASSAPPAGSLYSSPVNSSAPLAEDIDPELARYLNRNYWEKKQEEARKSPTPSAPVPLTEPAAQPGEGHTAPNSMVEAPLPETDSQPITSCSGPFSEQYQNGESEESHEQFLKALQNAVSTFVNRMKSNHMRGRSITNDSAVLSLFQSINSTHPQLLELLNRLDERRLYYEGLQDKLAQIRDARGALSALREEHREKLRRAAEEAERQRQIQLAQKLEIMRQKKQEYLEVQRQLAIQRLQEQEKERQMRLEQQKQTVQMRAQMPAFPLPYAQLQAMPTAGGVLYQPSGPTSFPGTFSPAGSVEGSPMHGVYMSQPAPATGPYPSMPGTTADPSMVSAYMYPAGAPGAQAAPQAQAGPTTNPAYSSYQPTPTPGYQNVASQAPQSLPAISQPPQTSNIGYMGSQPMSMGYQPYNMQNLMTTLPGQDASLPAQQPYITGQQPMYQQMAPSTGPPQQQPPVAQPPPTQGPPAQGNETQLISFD

These are yes or no findings as the source states them, for the method shown. Binding seen in cells or lysates may run through a third protein. Some binding calls cover weakened binding; strength is not graded here.

In the assay the target is T1, PPARγ coactivator PGC-1α (rat (endogenous in primary FLSs of SD rats)) (UniProt Q9QYK2).
T1 sequence: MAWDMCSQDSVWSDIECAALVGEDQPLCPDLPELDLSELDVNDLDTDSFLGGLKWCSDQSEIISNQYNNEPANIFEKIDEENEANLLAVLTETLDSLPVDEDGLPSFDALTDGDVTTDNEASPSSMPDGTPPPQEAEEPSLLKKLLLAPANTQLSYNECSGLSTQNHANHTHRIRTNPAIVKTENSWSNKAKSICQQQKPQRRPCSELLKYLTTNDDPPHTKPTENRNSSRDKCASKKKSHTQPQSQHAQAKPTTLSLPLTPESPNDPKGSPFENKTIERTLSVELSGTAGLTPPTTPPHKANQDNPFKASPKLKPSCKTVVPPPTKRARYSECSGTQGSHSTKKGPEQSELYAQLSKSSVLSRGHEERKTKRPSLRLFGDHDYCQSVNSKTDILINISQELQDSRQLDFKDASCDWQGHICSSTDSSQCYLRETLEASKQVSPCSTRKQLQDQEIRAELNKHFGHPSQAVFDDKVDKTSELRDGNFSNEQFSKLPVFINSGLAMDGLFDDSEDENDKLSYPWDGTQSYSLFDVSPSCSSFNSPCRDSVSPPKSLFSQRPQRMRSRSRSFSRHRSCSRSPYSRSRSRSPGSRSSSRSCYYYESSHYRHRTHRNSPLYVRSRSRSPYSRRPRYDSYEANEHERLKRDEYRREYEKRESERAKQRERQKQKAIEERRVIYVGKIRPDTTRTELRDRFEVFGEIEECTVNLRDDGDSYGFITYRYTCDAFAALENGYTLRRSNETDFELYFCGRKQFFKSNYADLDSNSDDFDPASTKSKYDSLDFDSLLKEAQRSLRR
Description: co-IP; endogenous proteins in lysates of rat primary FLSs (OE/KD PPARγ-treated); IP/Co-IP lysis buffer; antibody with Protein A/G magnetic beads, 4 °C overnight; washed thrice with lysis buffer; Western blot; IgG control.

Turning to “Hrs (ESCRT-0 subunit), hepatocyte growth factor-regulated tyrosine kinase substrate (from UniProt Q9JJ50 1-776)”, the binding entry was “binds”.
